# In patent publication US8481711B2, “Neurite outgrowth agent” (Hidenori Kamanishi, priority 2010, dated 2013):
# Tested on: fetal rat linear nerve cells (dopaminergic cells)
# Test: Gene expression analysis by microarray in fetal rat nerve cells
# Assay type: cell-based
# Conditions: 10 μg/mL
# Method: As nerve cells, fetal rat linear nerve cells (dopaminergic cells) purchased from LONZA (U.S.A.) were used. The cells were adjusted to a concentration of 1.0×10^5 cells/mL, and were then cultured at 37° C. in the presence of 5% CO2. As a culture solution, a serum-free medium for primary nerve cell culture (manufactured by LONZA) was used, and it was prepared according to the protocols. A culture dish, the surface of which had been treated with polylysine, was used. The NAD analogue of the present invention was adjusted to a final concentration of 10 μg/mL in the culture solution. The NAD analogue of the present invention was added simultaneously at the start of cell culture. 24 hours later, RNA was extracted from the cells using TRIZOL (registered trademark) (Invitrogen) according to an ordinary method, and the extracted RNA was used as a sample on Day 1. […]
# With regard to the RNA sample on Day 1 and the RNA sample on Day 2, each of which was extracted from the fetal rat linear nerve cells after the culture, gene expression in the nerve cells was analyzed by Cell Innovator Inc. (Fukuoka, Japan) on a commission basis. […]
# Giving attention to the sample on Day 2 whose altered expression was larger than that of the sample on Day 1, genes whose expression was altered were extracted, and were then analyzed by IPA (Ingenuity Pathways Analysis).
substance,measurement,setting,value
3-(aminocarbonyl)-1-[5-O-[[1-(6-amino-9H-purin-9-yl)-1-deoxy-β-D-ribofuranose-5-O-yl]phosphonyloxy(oxylato)phosphinyl]-β-L-ribofuranosyl]pyridinium [NAD analogue of the present invention],alteration of gene expression overall (microarray),"RNA samples on Day 1 and Day 2, Rat Genome 230 2.0 Array",small
same,genes with altered expression (IPA analysis),sample on Day 2 (48 hours),genes regarding cytoskeleton or nerve cells underwent altered expression
